PubChem BioAssay AID1259266, Sanger Institute – 2017
The whole screen tested 794 reagents; shown is an unselected part. Over the whole deposit, 16 (2%) are marked active. 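Calls reflect knock-down alone, not drug synergy; viability seems capped at 1 and z-scores at 0.585.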 Not all columns of the deposit are shown. Reagent sequences are not shown. The record does not give: the amount of reagent, the time to read-out.

Aim: 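Find knock-downs that kill LS123 cells or act with anchor drugs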 (primary screen)
Cells: LS123 human colorectal cancer cells
Reagents: siRNA pool against human genes
Treatment: anchor drugs BYL719 (1 µM), cetuximab (5 µg/ml) or trametinib (10 nM), each chosen to barely slow growth alone; DMSO vehicle as the drug-free arm
Read-out: 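Viability relative to non-targeting control pools, replicate mean, with a robust z-score for knock-down alone and synergy scores for each anchor drug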
Scale: robust z-score, knock-down alone: higher = more cells surviving after knock-down; viability, knock-down alone: higher = more viable cells
Units: viability, knock-down alone in fraction of control
Hit rule: 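Essential when the robust z-score of the knock-down alone is below -3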
Meaning of the calls: active = essential (knock-down alone cuts viability); inactive = no change

Knock-down of TPD52L3 came out at: robust z-score, knock-down alone 0.585; viability, knock-down alone 1; inactive.
BMPR1B scored robust z-score, knock-down alone 0.585; viability, knock-down alone 1; inactive.
Silencing of PRKAR2A came out at: robust z-score, knock-down alone -0.259; viability, knock-down alone 0.95; inactive.
Against DSTYK, the entry reads robust z-score, knock-down alone 0.585; viability, knock-down alone 1; inactive.
Against SF3B1 the deposit lists robust z-score, knock-down alone -2.89; viability, knock-down alone 0.794; inactive.
After knock-down of MYO3B, the screen gave robust z-score, knock-down alone 0.376; viability, knock-down alone 0.988; inactive.
Knock-down of RAF1 came out at: robust z-score, knock-down alone 0.585; viability, knock-down alone 1; inactive.
With knock-down of ULK2, the record shows robust z-score, knock-down alone -0.352; viability, knock-down alone 0.944; inactive.
With knock-down of RIOK1, the screen gave robust z-score, knock-down alone 0.585; viability, knock-down alone 1; inactive.
Depletion of CDK9 came out at: robust z-score, knock-down alone 0.585; viability, knock-down alone 1; inactive.
HIPK3 gave robust z-score, knock-down alone 0.585; viability, knock-down alone 1; inactive.
With knock-down of PRPS1, the screen gave robust z-score, knock-down alone 0.504; viability, knock-down alone 0.995; inactive.
For CDK13, the values are robust z-score, knock-down alone 0.585; viability, knock-down alone 1; inactive.
Knock-down of ATP23 resulted in: robust z-score, knock-down alone 0.585; viability, knock-down alone 1; inactive.
Knock-down of DIS3 resulted in: robust z-score, knock-down alone 0.257; viability, knock-down alone 0.981; inactive.
For LATS1, the entry reads robust z-score, knock-down alone 0.585; viability, knock-down alone 1; inactive.
PKIA gave robust z-score, knock-down alone 0.585; viability, knock-down alone 1; inactive.

Reformatted: 4 of the entries above.
{"target": "DSTYK", "robust z-score, knock-down alone": 0.585, "viability, knock-down alone": 1, "call": "inactive"}
{"target": "SF3B1", "robust z-score, knock-down alone": -2.89, "viability, knock-down alone": 0.794, "call": "inactive"}
{"target": "MYO3B", "robust z-score, knock-down alone": 0.376, "viability, knock-down alone": 0.988, "call": "inactive"}
{"target": "RAF1", "robust z-score, knock-down alone": 0.585, "viability, knock-down alone": 1, "call": "inactive"}

Next results follow.
Depletion of MAP3K6 came out at: robust z-score, knock-down alone 0.585; viability, knock-down alone 1; inactive.
SRC scored robust z-score, knock-down alone 0.585; viability, knock-down alone 1; inactive.
After knock-down of MAP3K13 the results were robust z-score, knock-down alone 0.0815; viability, knock-down alone 0.97; inactive.
Against GNAS, the entry reads robust z-score, knock-down alone -0.5; viability, knock-down alone 0.936; inactive.
Against PTPRU, the entry reads robust z-score, knock-down alone 0.323; viability, knock-down alone 0.984; inactive.
Depletion of CDKL2 gave: robust z-score, knock-down alone -0.609; viability, knock-down alone 0.929; inactive.
PKLR gave robust z-score, knock-down alone 0.585; viability, knock-down alone 1; inactive.
GRK4 scored robust z-score, knock-down alone 0.0567; viability, knock-down alone 0.969; inactive.
For EPHB2 the deposit lists robust z-score, knock-down alone -1.29; viability, knock-down alone 0.888; inactive.
IRAK4 showed robust z-score, knock-down alone 0.585; viability, knock-down alone 1; inactive.
With knock-down of HK3, the screen gave robust z-score, knock-down alone 0.585; viability, knock-down alone 1; inactive.
